Measurements reported in PubChem BioAssay AID1053208 (Peter MacCallum Cancer Centre, 2014).

Purpose: 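Find knock-downs that sensitise mouse osteosarcoma cells to doxorubicin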 (primary screen)
Cell system: mouse osteosarcoma cells, early-passage culture from an engineered mouse model of fibroblastic bone tumour
Reagents: siRNA pool against mouse genes, 40 nM
Duration: about 120 h (48 h before drug, then 72 h with drug)
Treatment: doxorubicin 100 nM for 72 h, roughly 30-40% inhibitory dose
Measured: 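Viability read as ATP luminescence after 72 h of 100 nM doxorubicin or none, duplicate wells averaged, scaled to non-targeting siRNA, then expressed as robust z-scores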
Scale: viability z-score with doxorubicin: higher = more viable cells under doxorubicin; viability z-score without drug: higher = more viable cells with knock-down alone
Active means: 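a pool counts as active when its viability z-score with doxorubicin is -2 or below and its z-score without drug lies between -2 and 2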
Here is one part, drawn at random, of about 17,000 reagents tested. Over the whole deposit, 788 (4.7%) got an active call. 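Calls rest on z-score classes alone; an extra cut-off of viability at most 70% of control was not applied to them.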 Unmarked entries are inactive. Further read-outs or replicates are left out here.

| gene knocked down | combined z-score class | viability z-score with doxorubicin | viability z-score without drug |
| --- | --- | --- | --- |
| Akr1b1 | no change with or without drug | 0 | 1.52 |
| Or1j16 | no change with or without drug | -1.8 | -1.01 |
| Lypd1 | no change with or without drug | 0.67 | 1.18 |
| 4932442K08RIK | low cell count without drug only | 0 | -3.2 |
| Zfp747 | no change with or without drug | 0.22 | 0.84 |
| Zeb2 | no change with or without drug | 0.67 | 1.52 |
| Mien1 | no change with or without drug | -1.01 | -0.84 |
| Krtap31-1 | no change with or without drug | 0.34 | 0 |
| Klhdc2 | no change with or without drug | 0.22 | 0.84 |
| Katnal1 | no change with or without drug | 0.45 | -0.51 |
| Trpv5 | no change with or without drug | -1.12 | -0.17 |
| Atp1a3 | no change with or without drug | 0 | -0.51 |
| Ywhae | no change with or without drug | -0.79 | -0.84 |
| Rev1 | no change with or without drug | -0.9 | 0.17 |
| Cldn17 | no change with or without drug | -1.46 | -1.18 |
| Atp5f1c | no change with or without drug | -0.45 | -1.85 |
| Armc7 | no change with or without drug | -1.12 | 0 |

Records above whose gene name begins with A or a (4):
| gene knocked down | combined z-score class | viability z-score with doxorubicin | viability z-score without drug |
| --- | --- | --- | --- |
| Akr1b1 | no change with or without drug | 0 | 1.52 |
| Atp1a3 | no change with or without drug | 0 | -0.51 |
| Atp5f1c | no change with or without drug | -0.45 | -1.85 |
| Armc7 | no change with or without drug | -1.12 | 0 |

Continued:
| gene knocked down | combined z-score class | viability z-score with doxorubicin | viability z-score without drug |
| --- | --- | --- | --- |
| Cox6b1 | no change with or without drug | 0.56 | 1.85 |
| Scap | no change with or without drug | 1.8 | 1.85 |
| Drc2 | no change with or without drug | 1.12 | 0.84 |
| Oas1a | no change with or without drug | 1.01 | 0.34 |
| Trim13 | no change with or without drug | -0.9 | 1.18 |
| Wasl | no change with or without drug | -1.57 | 1.01 |
| Ccl1 | no change with or without drug | -0.45 | 0.84 |
| Fgf7 | no change with or without drug | -0.22 | 0.51 |
| Clp1 | no change with or without drug | -0.79 | -1.18 |
| Defb40 | no change with or without drug | 0.22 | 0.17 |
| 1810009A15Rik | no change with or without drug | 0 | 0.67 |
| Hic1 | no change with or without drug | 0.67 | 0.17 |
| Derl3 | high cell count without drug only | 0.34 | 2.19 |
| Or9r3 | no change with or without drug | -0.67 | -0.84 |
| Vtcn1 | no change with or without drug | -0.67 | -0.51 |
| Abhd16b | no change with or without drug | -1.12 | -0.51 |
| Klk1b21 | no change with or without drug | -0.34 | -0.51 |
